# Data taken from publication PMC5974925.
# Where a protein sequence is shown, tags need not be part of it. For part of these data: For at least one entry, the source does not settle the construct or the ends of the probe. For part of these data: Weaker means in comparison with the reference protein, sequence or condition of that experiment.
# Key:
# [1] = biological target: T1, SbbR-His6 (Streptomyces bingchenggensis BC04) (UniProt D7C006); assay: DNase I footprinting; conditions: Footprinting: 200 ng probe, 50 ul, 25 C 25 min, recombinant protein, residues 34-239, protein details: C-terminal His6 (pET23b, NdeI/XhoI), probe letters rebuilt from the primers and the …
# T1 sequence (looked up): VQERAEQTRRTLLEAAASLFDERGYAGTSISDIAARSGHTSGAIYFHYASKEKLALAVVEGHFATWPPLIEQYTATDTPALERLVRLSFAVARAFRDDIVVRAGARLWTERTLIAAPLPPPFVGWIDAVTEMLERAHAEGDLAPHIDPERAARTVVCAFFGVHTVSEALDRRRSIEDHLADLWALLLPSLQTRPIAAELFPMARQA
# [2] = biological target: T1, SbbR-His6 (Streptomyces bingchenggensis BC04); assay: EMSA; conditions: EMSA: 20 mM Tris base, 2 mM DTT, 5 mM MgCl2, 0.5 ug calf BSA, 5% glycerol, 20 ul, 10 ng probe, 25 C 25 min (poly[d(I-C)] 500 ng when necessary), pH not stated, recombinant protein, residues 34-239, protein details: C-terminal His6 (pET23b, NdeI/XhoI), probe letters rebuilt from the primers and the genome
# [3] = concentration-dependent, not dissociated by 500-fold poly(dI-dC)
sequence,measurement,setting,value
"GGCCCTCCAGGACTGCTGTCACGGATCATGACTGGTTCCGGACCGCAGTGTGTGCGGGTTCGCTCGAGTCCCGGCGGAGTCGCCCTCGTACGTCGGCGGAGCGCCACTCGCCGCCCTCCGCCGGCCCGGGCTAATACACCCAGGTATGCAGCAATGGAATAAGCGACCCCATGCCACTTATTACTGAGATCAACTTGTGGCTCACATCACAGGCCACATTTCCGCATCGCCATGGAATGATGCCACGGTGTTCGCCTCAAGGTTTCGGCCAGCCGTAACAAGGGGAGACAAGAAATGCCGACGATGATTGTCATCGGACATAGGGACGGTCTCGACCACGCACTGCAGCGCCGAGGTTTGGAGCCTTTCTATATCGTGCAGGCGCCGGTGAACACGCCGGCGGGTCGGCGTTTCAGGCGTGTCATCGACATGG (double strand) [PmilR, FAM-labeled]",binding result,"[1]; label: 5' FAM (S33), HEX-named reverse primer (S34)",binds
GGCCCTCCAGGACTGCTGTCACGGATCATGACTGGTTCCGGACCGCAGTGTGTGCGGGTTCGCTCGAGTCCCGGCGGAGTCGCCCTCGTACGTCGGCGGAGCGCCACTCGCCGCCCTCCGCCGGCCCGGGCTAATACACCCAGGTATGCAGCAATGGAATAAGCGACCCCATGCCACTTATTACTGAGATCAACTTGTGGCTCACATCACAGGCCACATTTCCGCATCGCCATGGAATGATGCCACGGTGTTCGCCTCAAGGTTTCGGCCAGCCGTAACAAGGGGAGACAAGAAATGCCGACGATGATTGTCATCGGACATAGGGACGGTCTCGACCACGCACTGCAGCGCCGAGGTTTGGAGCCTTTCTATATCGTGCAGGCGCCGGTGAACACGCCGGCGGGTCGGCGTTTCAGGCGTGTCATCGACATGG (double strand) [PmilR],binding result,[2]; 0.2 uM SbbR + ethyl acetate extract of BC04 (dissociates complex),binds more weakly
same,binding result,[2]; 0.2 uM SbbR + high concentration of ethyl acetate extract of sbbA deletion strain (dissociates complex),binds more weakly
same,binding result,[2]; [3],binds
GGTTGTAGTGCCGCTCGTAGGCGGCGAGGACGTGGCGGGCGTGGGCATCGTTCATGATGAGGACGTGGTCGAGGGCTTCGCGGCGGATGCTGCCGATGATGCGTTCGCAGTGCGCGTTCATGCGGGGGGTCCGGGGGAGCGAGATCGCCGCGCTCATTTCAGGGCCCCTCGCCGTAAGGGGCTTGGAGAATGTCTCGGGGTGGTCATGGCGCTGATTGACGGCGCCATGAGTGTAGGGGCTTCATCGATGATGGCCATCTAGTGGTGGACTTCGACCGAGGCAAAAGATCAACGGGGGATTTTTGCAAATCTTTTGCAGTTGTCACTGTTCTGCCCTCTTTGTCATGCCTTCAAGGCTCCCGTAGGGGAATTTTGTGTGCGGTCGGCGAAATGCGGGGGAAAGATTCAGTATGCTCATCGGTAGGGAATTAGAACTCAGTAAATTGAAATCTGCCCTGGCTGAGTCTGCGACGAACAGAGCGAGAACCGTTGTCATCGAAGGCCCGGTCGGCTGTGGGAAGACCGAGCTGCTGGAAACCCTGGCCACCAGTGCCGTGGCCAGTGACGCGTTGGTTCTGAGAGCGACCGCACTGCCCTGGGAGATTTCTCTGCCCCTCGGTGTCATGCGGCAGTTGGTCGACAGCCCGTCGCTGCCCGAGGAATCGGGGCGGCGTCTCCGGGAGCTGCTGGACGAGGACGAGGCGGCCGCCGATCCGGAGTCGGCCGACGTGCTGGCCCCGGTCGGCGCCGCCCGTATGCAGAAGGTCTGCGCGGCTCTGCACGAAGTGGTCCGGGACC (double strand) [Psbi_01376],binding result,[2]; 0.1-0.2 uM SbbR,binds
TCCAGAGCACCCGTGAAACCATGCGCGACCACGATGGCCGGACCCGGGGCCGGGTCCGTGCCCGACCCCGGTCCATACGGCTGAAACGGCGTGTACGCGGCCTCGATCGCCACCCCGTCGTCCGTCAACAACCTGGTCGGCCGTCCGCGCTCGGTGATCAAGGAAACATGAGGCGGTGCGGATACAGCCTTAATCCCACGTGTCATGTGGGTTATTCTTCTGGGAAGAGGATCCGGGCAAAGCAGCCCCCGGGTCCTTTTGTGCTTTCAGGCGCGTTCCGCGCGTTTGAGCGCACACGCGCTCCAGGGCGCGGAGCCGCAGCCCGGCACAAAGTGGTGCTGAGTCGCGTAAAGCAGTACACACGAAGCAGTGCGCACGAAGTAGTGCGAGTCAGCCAGGTACGAAGCACAGGTACGAAGCAGTAGCCGCATACTCCCCCAGGCCGGGCCTGGGAGGTGCCCCCTCTCGCAGGGACCGAGGAGGAACCGACGTAATGGGCGAGCGAAGCGTGTACGACCATAGGACGACGTCCGGGGCGGGTGATCACCGATGAGCTCCCTCCTCCTGCTGACCAACGCGCTGCAGCCCTCGACGGAGGTGCTTCCCGCGCTCGGGCTGCTGCTGCACGGCGTGCGGGTGGCCCCGGCCGAGGGACCGGCCCTGGTGGACACCCCCGGGGCCGATGTGATCCTCATCGACGGCCGCCGCGATCTGCCCCAGGTGCGC (double strand) [Psbi_05051],binding result,[2]; 0.1-0.2 uM SbbR,binds
"TCGCGTAGTGGAAGTAGATGGCGCCGCTGGTGTGGCCGGACCGGGCGGCGATATCGCTGATGCTGGTGCCGGCGTAGCCCCGTTCGTCGAAGAGGGAAGCCGCCGCTTCCAGGAGGGTTCGGCGTGTCTGCTCGGCCCGCTCTTGCACGTGGTGTCCGTCCTCGTTCCGTCGCGTGCGGTGCGTTGTCGGGGTGAACTTAGCGGACTTGTCGCATGTCATGGAGGTGAAGACCCACAGGTCCATCATTACTAGTATTTTATGGCGATCATTGGTGAGGCGTGTGGCGTCCCGGAGCCGTGGGAGCTCGTGGCGCGGCGGCTGAGCTGGTCCCGCACCGTGGCGCGCGAGGCGGTGCACCGCGCCTCGGTGGCCGAAGTGCTGCTCACCGACGTCCGCGCACTGGGTGGCGGCCGGTTCGTGGCCGCGGTGCAGTGGCCACGCTCCCATCCCACGTTCCCGCATG (double strand) [PR-A, FAM-labeled]",binding result,"[1]; label: 5' FAM (S35), HEX-named reverse primer (S36)",binds
TCGCGTAGTGGAAGTAGATGGCGCCGCTGGTGTGGCCGGACCGGGCGGCGATATCGCTGATGCTGGTGCCGGCGTAGCCCCGTTCGTCGAAGAGGGAAGCCGCCGCTTCCAGGAGGGTTCGGCGTGTCTGCTCGGCCCGCTCTTGCACGTGGTGTCCGTCCTCGTTCCGTCGCGTGCGGTGCGTTGTCGGGGTGAACTTAGCGGACTTGTCGCATGTCATGGAGGTGAAGACCCACAGGTCCATCATTACTAGTATTTTATGGCGATCATTGGTGAGGCGTGTGGCGTCCCGGAGCCGTGGGAGCTCGTGGCGCGGCGGCTGAGCTGGTCCCGCACCGTGGCGCGCGAGGCGGTGCACCGCGCCTCGGTGGCCGAAGTGCTGCTCACCGACGTCCGCGCACTGGGTGGCGGCCGGTTCGTGGCCGCGGTGCAGTGGCCACGCTCCCATCCCACGTTCCCGCATG (double strand) [PR-A],binding result,[2]; [3],binds
TGGCGTGGCGAGATCGATCCGGCCGCGGCCTCCGGGAGGAACGGCTGATAGGTCATGTACGGCTCGGGGTCGACCACGATGACCTGTACGTCGCCTTGCCCCAGCTCCCTCTTCAGCTTCCGCTGGAGGCGCAGCGCGGTGTACATCCCGACGTAGCCACCGCCGACAACGAGAATGCGCGCAGGTTCCTTCACCCTCCCATGAGGCACGCACAGCCGCGGTTTGTCCACAGGCCCGACGAATTGTGTGACCGGCGGTTTCGACGCGCCCCGCCGCGCCCATTCGGTCAAGCGTACGGAAGGTGCGCAGGTCAGTAGGGGGGCGCGGGGTGGTGGGCGGGTGGGGAAGCGCGGACGGGCGGTGCGGTACTCCGAACGGGGGTCGATCTGTCCGGACCTACCCCCTTCTTTCTTGACCGGCGCTCAACTATGTTCGTACTCCGTCGGGGTCGAGACTGCCCCGGCGTTCTGGGCGGGGAGTCTCCGGGGGGAGACGTCATAACCGGGGGATCACTATGCAGCTTCAGGGTTCTCATTGGTCGTCAGCCGTCGCGTCGGCGGACGGTGCCGGCGGCCGGAACACTCCGCTGCGCGTGGACGCGCAGCGCAATCTCGAGCATGTGCTGCGGGCGGCGCGCGAGGTCTTCGGGGAGCTGGGGTACGGCGCTCCCATGGAGGACGTCGCGCGGCGCGCGCGGGTCGGGGTGGGCACCGTCTATCGGCGCTTCCCCAGCAAGGACGTCCTGGTCCGTCGTATAGCCGAGG (double strand) [Psbi_05779],binding result,[2]; 0.1-0.2 uM SbbR,binds
